Laboratory results published in patent US20230235074A1 (University of Texas, published 2023).
These are yes or no findings as the source states them, for the method shown. Some entries that bind do so weakly or less than the wild type. One block for each binder: values may come before it.

Protein sequences, listed by entry. Tags and fused reporters are not part of them. Lines headed by an entry give the natural chain unless they say otherwise; changes in a name come on top. Residues count along the entry.
UniProt Q10589, residues 49-161: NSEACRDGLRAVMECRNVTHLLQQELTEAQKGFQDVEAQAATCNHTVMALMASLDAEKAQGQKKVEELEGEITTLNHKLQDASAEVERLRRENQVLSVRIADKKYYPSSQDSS

Assays:
[1] = target: BST2 long isoform (BST2-D, full length BST2, 180 amino acids) expressed on HEK293 transfectants (human) (UniProt Q10589); test: flow cytometry, hybridoma supernatant
[2] = target: T1, BST2 long isoform peptide (BST2-D peptide), positions 133-156 (human); test: ELISA, hybridoma supernatant on free peptide
T1 sequence (peptide): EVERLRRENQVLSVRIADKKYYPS

[3] = target: BST2 long isoform (BST2-D, full length BST2, 180 amino acids) expressed on HEK293 transfectants (human) (UniProt Q10589); test: flow cytometry, hybridoma supernatant (FIG. 7)
[4] = target: BST2 long isoform (BST2-D, full length BST2, 180 amino acids) expressed on HEK293 transfectants (human) (UniProt Q10589); test: immunocytochemistry on HEK-293 transduced cells
[5] = target: BST2 long isoform (BST2-D, full length BST2, 180 amino acids) expressed on HEK293 transfectants (human) (UniProt Q10589); test: cell-based ELISA, hybridoma supernatant (FIG. 6)
[6] = target: BST2 long isoform (BST2-D, full length BST2, 180 amino acids) expressed on HEK293 transfectants (human) (UniProt Q10589); test: flow cytometry, mAb 1 ug/ml on HEK293 long transfectant (FIG. 8)
[7] = target: BST2 long isoform (BST2-D, full length BST2, 180 amino acids) expressed on HEK293 transfectants (human) (UniProt Q10589); test: flow cytometry, hybridoma supernatant on transduced HEK-293 cells
[8] = target: BST2 long isoform (BST2-D, full length BST2, 180 amino acids) expressed on HEK293 transfectants (human) (UniProt Q10589); test: flow cytometry on HEK293-long transfectant, told in the discussion
[9] = target: T1, BST2 long isoform peptide (BST2-D peptide), positions 133-156 (human); test: ELISA, hybridoma supernatant on plate-coated BST2-D peptide (1 ug/ml)
[10] = target: BST2 long isoform (BST2-D, full length BST2, 180 amino acids) expressed on HEK293 transfectants (human) (UniProt Q10589); test: cell-based ELISA on dried cells, hybridoma supernatant, OD 450 nm
[11] = target: BST2 long isoform (BST2-D, full length BST2, 180 amino acids) expressed on HEK293 transfectants (human) (UniProt Q10589); test: cell-based ELISA, hybridoma supernatant on dried HEK293 BST2-long cells
[12] = target: BST2 long isoform (BST2-D, full length BST2, 180 amino acids) expressed on HEK293 transfectants (human) (UniProt Q10589); test: immunocytochemistry on paraffin sections of HEK293 transfectants (FIG. 18B)
[13] = target: Recombinant human BST2 protein (Catalog number 13370-H07H, Sino Biological) (human) (UniProt Q10589); test: flow cytometry on MM1 cells after preincubation of the mAb with soluble BST2 protein
[14] = target: T1, BST2 long isoform peptide (BST2-D peptide), positions 133-156 (human); test: ELISA dilution assay, plate coated with BST2 peptide alone, hybridoma supernatant undiluted and 1/15, 1/225, 1/3375, OD 450 nm (axis unlabelled on the sheet)

binding [1]: binds
binding [2]: binds
binding [3]: binds
binding [4]: binds
binding [5]: binds
binding [6]: binds
binding [7]: binds
binding [8]: binds
binding [9]: binds
binding [10]: binds
binding [11]: binds
binding [12]: binds
binding [13]: binds
binding [14]: binds
B1: anti-BST2-long monoclonal antibody clone LA5 (antibody, mouse IgG1, V domains shown)
VH: EVQLQQSGAELVRSGASVNLSCTASGFNIKDYYIHWVKQRPERGLEWIGWIDPENGDTEYAPEFQGKASMTADTSSNTAYLQLSSLTSEDTAVYYCKRGDWGQGTLVTVSA
VL: DVLMTQTPLSLPVSLGDQASISCRSSQSIVHSNGNTYLEWFLQKPGQSPKLLIYKVSNRFSGVPDRFSGSGSGTDFTLKISRVEAEDLGVYYCFQGSHAPFTFGSGTELEIK
notes: Mouse hybridoma antibody; Used as hybridoma supernatant in the screening assays and as Protein A purified mAb afterwards; also called LA5 mAb; MAb LA5

binding [1]: binds
binding [2]: binds
binding [3]: binds
binding [5]: binds
binding [7]: binds
binding [9]: binds
binding [10]: binds
binding [11]: binds
binding [14]: binds
B2: BM7 antibody (antibody, IgG1, V domains shown)
VH: QVTLKESGPGILKPSQTLSLTCSFSGFSLSTSGVGVGWIRQPSGKGLEWLAHIWWDDDEYYNPSLKSQLTISKDTSRNQVFLKITSVDTSDTATYYCARRYYGDAMDYWGQGTAVTVSS
VL: DVVMTQTPVSLPVSLGDQASISCRSTQSLVHSNGHTYLHWYLQKPGQSPKLLIYKVSNRFSGVPDRFSGTGSGTDFTLKISRVEAEDLGVYFCSQSTHVPYTFGGGTKLEIK
notes: Tested as hybridoma supernatant
